Series [1] deals with TLR4 (human, co-expressed with MD-2 and CD14) (Homo sapiens) (UniProt O00206). The series can be described thus: activity in cells. The note with it: protein on the cell surface, protein details: HEK-Blue hTLR4 cells, InvivoGen Hkb-htlr4, single-stranded DNA, variant of ApTOLL (ApTLR#4FT, 4F-T).
The target is the same in series [2]. The series can be described thus: competition with a labelled probe. The note with it: equimolar 100 nM with ApTOLL-Dig, protein on the cell surface, protein details: HEK-Blue hTLR4 cells, InvivoGen Hkb-htlr4, single-stranded DNA, variant of ApTOLL (ApTLR#4FT, 4F-T).
[3] abbreviates: TLR4 antagonist comparable to ApTOLL, concentration dependent (20, 200 nM).

Amino acid sequences for entries named in this document (tags omitted). Residues count along the entry.
UniProt O00206, 24-839: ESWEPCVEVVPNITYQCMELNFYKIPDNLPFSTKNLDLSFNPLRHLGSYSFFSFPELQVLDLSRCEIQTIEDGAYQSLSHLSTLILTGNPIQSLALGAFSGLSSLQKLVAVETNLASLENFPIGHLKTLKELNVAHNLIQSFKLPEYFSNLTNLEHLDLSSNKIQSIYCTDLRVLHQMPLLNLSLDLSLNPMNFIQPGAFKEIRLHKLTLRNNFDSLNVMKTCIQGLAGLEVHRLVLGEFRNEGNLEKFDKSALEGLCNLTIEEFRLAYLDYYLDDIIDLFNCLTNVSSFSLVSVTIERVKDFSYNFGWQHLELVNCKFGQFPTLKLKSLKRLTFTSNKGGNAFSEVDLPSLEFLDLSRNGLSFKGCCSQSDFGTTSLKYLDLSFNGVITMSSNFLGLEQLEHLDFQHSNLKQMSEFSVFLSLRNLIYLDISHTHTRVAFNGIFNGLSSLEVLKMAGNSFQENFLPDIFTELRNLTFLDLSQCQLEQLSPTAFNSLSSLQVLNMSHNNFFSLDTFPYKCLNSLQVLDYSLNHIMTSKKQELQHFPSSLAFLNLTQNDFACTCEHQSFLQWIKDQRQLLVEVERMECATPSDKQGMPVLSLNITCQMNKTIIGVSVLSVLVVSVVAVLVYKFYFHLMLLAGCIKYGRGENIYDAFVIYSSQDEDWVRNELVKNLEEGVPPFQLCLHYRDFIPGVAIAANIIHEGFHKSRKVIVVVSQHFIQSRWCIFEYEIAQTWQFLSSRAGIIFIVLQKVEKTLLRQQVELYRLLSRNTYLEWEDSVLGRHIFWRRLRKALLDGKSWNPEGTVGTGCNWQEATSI

For part of these data: At least one result comes from cells or an extract, where the contact may be indirect.

In the case of “CCTGTGCCAATAAAGGATACCGCCGCGTTAGCATGTACTCGGTTGGCCCAAATACGAG [ApTOLL-Mut 4]”, the “functional effect of the aptamer” value in series [1] (TLR4 antagonist, not concentration dependent (20, 200 nM)) was “active”.
Consider “TCCTGTGCCAATAAAGGATACCGCCGCGTTAGCATGTACTCGGTTGGCCCTAAATACGAG [ApTOLL-Mut 3]”, for which the “functional effect of the aptamer” value in series [1] (setting [3]) is recorded as “active”. Besides, the binding result in series [2] was “binds”.
With “CCTGTGCCAATAAAGGATACCGCCGCGTTAGCATGTACTCGGTTGGCCCTAAATACGAG [ApTOLL-Mut 1]”, the “functional effect of the aptamer” value in series [1] (setting [3]) is on record as “active”.
The same measure, in the same setting: the entry for “GGTGTGCCAATAAACCATACCGCCGCGTTAGCATGTACCTGGTTGGCCCCAAATACAGG [ApTOLL-Mut 6]” is “active”.
Regarding “GGTGTGCCAATAAACCATATCGCCGCGTTAGCATGTACAGGGTTGGCCCCAAATACCTG [ApTOLL-Mut 2]”, the “functional effect of the aptamer” value in series [1] (setting [3]) is “active”. The binding result in series [2] (lowest of the mutants) was “binds”.
In the case of “TCCTGTGCCAATAAAGGATACCGCCGCGTTAGCATGTACTCGGTTGGCCCTAAATACGAGT [ApTOLL-Mut 5]”, the “functional effect of the aptamer” value in series [1] (setting [3]) is on record as “active”. Moreover, the binding result in series [2] was “binds”.

The values are drawn from US20260218202.
